From article PMC4643928
No constants are given. Whether binding was seen depends on the method and setting.

Molecular target: C-terminal domain of E. coli GyrA (residues 531-875) with the C-terminal acidic tail (E. coli) (UniProt P0AES4)
Experiment: SEC; analytical SEC, Superdex 200 5/150 GL, 10 ul sample, 0.5 ml/min, 300 mM NaCl, 20 mM Tris/HCl pH 8.0; mass from elution volume against a calibration curve; both purified

C-terminal domain of E. coli GyrA (residues 531-875) with the C-terminal acidic tail (from UniProt P0AES4 531-875) (domain or fragment)
binding: no binding
